{"sequences": {"note": "By UniProt entry, the sequences of proteins in these tests, tags left out.", "UniProt P46938": "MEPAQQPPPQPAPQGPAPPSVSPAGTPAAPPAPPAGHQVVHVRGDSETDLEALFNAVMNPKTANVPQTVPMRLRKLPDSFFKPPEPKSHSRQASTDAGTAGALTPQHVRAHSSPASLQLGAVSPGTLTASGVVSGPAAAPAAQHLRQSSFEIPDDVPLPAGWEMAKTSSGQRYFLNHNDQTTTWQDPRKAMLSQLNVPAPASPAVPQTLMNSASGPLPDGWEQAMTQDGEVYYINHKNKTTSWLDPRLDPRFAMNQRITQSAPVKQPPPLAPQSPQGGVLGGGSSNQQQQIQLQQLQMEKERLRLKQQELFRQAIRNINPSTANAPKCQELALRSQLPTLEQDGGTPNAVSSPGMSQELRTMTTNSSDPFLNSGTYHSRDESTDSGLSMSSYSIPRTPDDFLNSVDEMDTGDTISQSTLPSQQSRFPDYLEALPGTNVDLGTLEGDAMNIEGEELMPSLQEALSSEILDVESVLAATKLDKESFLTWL"}, "source": "paper PMC5789973", "target": "YAP (mouse (endogenous in E14Tg2a ESC and in iPSC from MEFs)) (UniProt P46938)", "assay": "affinity purification with mass spectrometry; YAP immunoprecipitates (Protein G Dynabeads) from whole cell lysates of ESC transfected with empty vector or zsRASSF1A; Orbitrap; intensities normalised to YAP", "note": "Results are given in words; binding and its absence hold for the method and conditions named. In cells and extracts the contact can be indirect. Here binding means that the protein was enriched with, or labelled near, the bait; the list need not be complete."}
{"binder": "TCF3 (protein, UniProt Q9Z1J1 1-584) MPQLGGGRGGAGGGGGGSGAGATSGGDDLGANDELIPFQDEGGEEQEPSSDTASAQRDLDEVKSSLVNESENQSSSSDSEAERRPQPARDAFQKPRDYFAEVRRPQDGAFFKGGAYPGYPFLMIPDLSSPYLSNGPLSPGGARTYLQMKWPLLDVPSSATVKDTRSPSPAHLSNKVPVVQHPHHMHPLTPLITYSNDHFSPASPPTHLSPEIDPKTGIPRPPHPSELSPYYPLSPGAVGQIPHPLGWLVPQQGQPMYSLPPGGFRHPYPALAMNASMSSLVSSRFPHMVAPAHPGLPTSGIPHPAIVSPIVKQEPAAPSLSPAVSAKSPVTVKKEEEKKPHVKKPLNAFMLYMKEMRAKVVAECTLKESAAINQILGRKWHNLSREEQAKYYELARKERQLHAQLYPTWSARDNYGKKKKRKREKQLSQTQSQQQIQEAEGALASKSKKPCIQYLPPEKPCDSPASSHGSALDSPATPSAALASPAAPAATHSEQAQPLSLTTKPEARAQLALHSAAFLSAKAAASNSSQMGSQPPLLSRPLPLGSMPAALLTSPPTFPATLHAHQALPVLQAQPLSLVTKSAH", "values": [{"measurement": "binding", "result": "binds"}]}
